The record followed here is publication PMC5094555, “Human Mitochondrial Cytochrome b Variants Studied in Yeast: Not All Are Silent Polymorphisms” (Human Mutation, 2016).

The chains behind the UniProt entries cited, without tags or fusion partners. Where a name states a change or a piece, a line headed by the entry shows the natural chain unless it says otherwise.
UniProt P00157: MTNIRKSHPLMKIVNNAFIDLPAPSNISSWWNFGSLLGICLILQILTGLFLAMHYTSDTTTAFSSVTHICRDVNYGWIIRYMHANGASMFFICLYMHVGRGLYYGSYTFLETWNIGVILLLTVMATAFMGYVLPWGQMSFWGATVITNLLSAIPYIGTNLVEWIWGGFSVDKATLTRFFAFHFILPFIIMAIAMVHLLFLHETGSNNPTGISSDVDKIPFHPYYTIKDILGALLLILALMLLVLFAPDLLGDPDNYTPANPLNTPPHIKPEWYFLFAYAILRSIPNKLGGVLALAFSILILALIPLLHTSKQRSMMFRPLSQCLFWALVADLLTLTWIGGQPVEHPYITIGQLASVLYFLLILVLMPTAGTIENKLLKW

This assay addresses bovine complex III (Bos taurus, UniProt P00157). The assay can be described thus: biochemical.

As to `CN(C)CCCN1c2ccccc2CCc2ccc(Cl)cc21` [clomipramine], the 50% inhibitory concentration (IC50) (in general, the concentration that gives 50% inhibition) stood at 24 ± 5 µM.
